The list is a part of this screen's results and no random one: it gathers tests that were run many times, whatever their T/C, doses with no T/C, and many T/C values between a quarter and a half above the control. Other doses and runs of a compound stand elsewhere. T/C gives the treated animals as a percentage of the vehicle group. Some doses have a count of surviving animals in place of a T/C: the source files T/C as zero there, which appears to mark a toxic dose or a test without result, not a measured value. Survivors were counted at the toxicity check, usually on the fifth day, unless a day is given; later deaths do not show. Schedule codes are those of the source, read here as Q, the interval in days (D) or hours (H), X, the number of doses. Some entries were tested several times; the values are given in rising order. Signs of the kind (2×) count equal records among those shown. Where survival is the endpoint, this PubChem deposit counts one and a half times the control or more as active, and values a quarter to a half above the control carry no call in these data; other NCI protocols may use other cut-offs. Some T/C values carry the count of animals alive at the toxicity check (mostly the fifth day); where none is given, no animal had died by that day.
Test system: BDF1 mice, L1210 leukemia sc, survival T/C
Test: NCI In Vivo Anticancer Drug Screen. Data for tumor model L1210 Leukemia (subcutaneous) in B6D2F1 (BDF1) mice
Details: T/C endpoint: median survival time, vehicle: saline, higher T/C = longer survival
Method in brief: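 Antitumor activity is assessed in mice with transplanted tumors by comparing the treated group (T) with the vehicle control group (C).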

O=P1(N(CCCl)CCCl)NCCCO1 (stereo not given)
T/C (dose: 200.0 mg/kg/injection, schedule: Q08DX003 (sc), evaluated on day 7): 276, 282, 349, 358 % of control
T/C (dose: 200.0 mg/kg/injection, schedule: Q08DX003 (sc), evaluated on day 32): 275 % of control
T/C (dose: 200.0 mg/kg/injection, schedule: Q08DX003 (sc), evaluated on day 34): 272 % of control
T/C (dose: 200.0 mg/kg/injection, schedule: Q08DX003 (sc), evaluated on day 42): 344 % of control
T/C (dose: 200.0 mg/kg/injection, schedule: Q08DX003 (sc), evaluated on day 43): 358 % of control
T/C (dose: 300.0 mg/kg/injection, schedule: Q01DX001 (sc), evaluated on day 6): 245 % of control
T/C (dose: 300.0 mg/kg/injection, schedule: Q01DX001 (sc), evaluated on day 7): 104, 109, 180, 223, 232, 277 % of control
T/C (dose: 300.0 mg/kg/injection, schedule: Q01DX001 (sc), evaluated on day 30): 180 and 232 % of control
T/C (dose: 300.0 mg/kg/injection, schedule: Q01DX001 (sc), evaluated on day 31): 266 % of control
T/C (dose: 300.0 mg/kg/injection, schedule: Q01DX001 (sc), evaluated on day 33): 227 and 245 % of control
T/C (dose: 300.0 mg/kg/injection, schedule: Q01DX001 (sc), evaluated on day 35): 111 % of control [6 of 8 alive]
T/C (dose: 300.0 mg/kg/injection, schedule: Q01DX001 (sc), evaluated on day 36): 277 % of control
T/C (dose: 300.0 mg/kg/injection, schedule: Q01DX001 (sc), evaluated on day 40): 120 % of control
survivor count (dose: 300.0 mg/kg/injection, schedule: Q01DX001 (sc)): 4 of 8
T/C (dose: 300.0 mg/kg/injection, schedule: Q01DX001 (sc), run until all animals had died): 190 and 270 % of control
T/C (dose: 300.0 mg/kg/injection, schedule: Q07DX003 (sc), evaluated on day 6): 235 and 247 % of control
T/C (dose: 300.0 mg/kg/injection, schedule: Q07DX003 (sc), evaluated on day 7): 104, 112, 172, 207, 258 % of control
T/C (dose: 300.0 mg/kg/injection, schedule: Q07DX003 (sc), evaluated on day 30): 172 and 207 % of control
T/C (dose: 300.0 mg/kg/injection, schedule: Q07DX003 (sc), evaluated on day 33): 230 % of control
T/C (dose: 300.0 mg/kg/injection, schedule: Q07DX003 (sc), evaluated on day 35): 105 % of control [7 of 8 alive]
T/C (dose: 300.0 mg/kg/injection, schedule: Q07DX003 (sc), evaluated on day 36): 233 % of control
T/C (dose: 300.0 mg/kg/injection, schedule: Q07DX003 (sc), evaluated on day 40): 315 % of control
T/C (dose: 300.0 mg/kg/injection, schedule: Q07DX003 (sc), evaluated on day 45): 252 % of control
T/C (dose: 300.0 mg/kg/injection, schedule: Q08DX002 (sc), evaluated on day 7): 209 and 219 % of control
T/C (dose: 300.0 mg/kg/injection, schedule: Q08DX002 (sc), evaluated on day 32): 216 % of control
T/C (dose: 300.0 mg/kg/injection, schedule: Q08DX002 (sc), evaluated on day 36): 211 % of control
survivor count (dose: 400.0 mg/kg/injection, schedule: Q01DX001 (ip)): 1 of 8
T/C (dose: 400.0 mg/kg/injection, schedule: Q01DX001 (sc), evaluated on day 7): 98, 104, 106, 107, 111, 191, 236, 237, 269, 270, 277 % of control
T/C (dose: 400.0 mg/kg/injection, schedule: Q01DX001 (sc), evaluated on day 9): 193 % of control
T/C (dose: 400.0 mg/kg/injection, schedule: Q01DX001 (sc), evaluated on day 21): 100 % of control
T/C (dose: 400.0 mg/kg/injection, schedule: Q01DX001 (sc), evaluated on day 31): 272 % of control
T/C (dose: 400.0 mg/kg/injection, schedule: Q01DX001 (sc), evaluated on day 32): 260 % of control
T/C (dose: 400.0 mg/kg/injection, schedule: Q01DX001 (sc), evaluated on day 34): 100 [8 of 10 alive] and 266 % of control [7 of 8 alive]
T/C (dose: 400.0 mg/kg/injection, schedule: Q01DX001 (sc), evaluated on day 36): 183 % of control [7 of 8 alive]
T/C (dose: 400.0 mg/kg/injection, schedule: Q01DX001 (sc), evaluated on day 40): 105 and 105 % of control [6 of 8 alive]
T/C (dose: 400.0 mg/kg/injection, schedule: Q01DX001 (sc), evaluated on day 43): 105 [6 of 8 alive] and 236 % of control
T/C (dose: 400.0 mg/kg/injection, schedule: Q01DX001 (sc), evaluated on day 60): 160 [6 of 8 alive] and 244 % of control
T/C (dose: 400.0 mg/kg/injection, schedule: Q01DX001 (sc), run until all animals had died): 208 % of control
T/C (dose: 400.0 mg/kg/injection, schedule: Q08DX002 (sc), evaluated on day 7): 103 and 118 % of control
T/C (dose: 400.0 mg/kg/injection, schedule: Q08DX002 (sc), evaluated on day 21): 100 % of control
T/C (dose: 400.0 mg/kg/injection, schedule: Q08DX002 (sc), evaluated on day 36): 122 % of control [7 of 8 alive]
T/C (dose: 400.0 mg/kg/injection, schedule: Q08DX002 (sc), evaluated on day 43): 116 % of control
T/C (dose: 400.0 mg/kg/injection, schedule: Q08DX003 (sc), evaluated on day 7): 168, 170, 203, 206 % of control
T/C (dose: 400.0 mg/kg/injection, schedule: Q08DX003 (sc), evaluated on day 32): 160 % of control
T/C (dose: 400.0 mg/kg/injection, schedule: Q08DX003 (sc), evaluated on day 34): 205 % of control [7 of 8 alive]
T/C (dose: 400.0 mg/kg/injection, schedule: Q08DX003 (sc), evaluated on day 42): 166 % of control [8 of 10 alive]
T/C (dose: 400.0 mg/kg/injection, schedule: Q08DX003 (sc), evaluated on day 43): 203 % of control
survivor count (dose: 500.0 mg/kg/injection, schedule: Q01DX001 (ip)): 0 of 8
T/C (dose: 500.0 mg/kg/injection, schedule: Q01DX001 (sc), evaluated on day 6): 252 % of control
T/C (dose: 500.0 mg/kg/injection, schedule: Q01DX001 (sc), evaluated on day 7): 63, 67, 68, 71, 96, 183, 245 % of control
T/C (dose: 500.0 mg/kg/injection, schedule: Q01DX001 (sc), evaluated on day 30): 183 % of control
T/C (dose: 500.0 mg/kg/injection, schedule: Q01DX001 (sc), evaluated on day 32): 244 % of control
T/C (dose: 500.0 mg/kg/injection, schedule: Q01DX001 (sc), evaluated on day 33): 255 % of control
survivor count (dose: 500.0 mg/kg/injection, schedule: Q01DX001 (sc)): 0 of 8, 2 of 8, 3 of 8 (3×), 4 of 8 (2×), 5 of 8
T/C (dose: 500.0 mg/kg/injection, schedule: Q01DX001 (sc), run until all animals had died): 114 % of control [6 of 8 alive]
T/C (dose: 500.0 mg/kg/injection, schedule: Q07DX003 (sc), evaluated on day 7): 69 and 209 % of control
T/C (dose: 500.0 mg/kg/injection, schedule: Q07DX003 (sc), evaluated on day 40): 110 % of control
T/C (dose: 500.0 mg/kg/injection, schedule: Q07DX003 (sc), evaluated on day 45): 210 % of control
survivor count (dose: 600.0 mg/kg/injection, schedule: Q01DX001 (ip)): 0 of 8
survivor count (dose: 600.0 mg/kg/injection, schedule: Q01DX001 (sc)): 0 of 8
